Consider 40 targets from the supplement of paper PMC10849652.

Sequences of proteins named here, by UniProt entry; tags and fusion partners are left off. A change or cut given only in a name is not applied to a line headed by its entry.
UniProt O60739, whole entry, looked up: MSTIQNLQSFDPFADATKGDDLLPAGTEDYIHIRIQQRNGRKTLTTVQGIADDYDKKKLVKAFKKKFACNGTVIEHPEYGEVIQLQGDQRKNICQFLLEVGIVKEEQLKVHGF
UniProt Q14919: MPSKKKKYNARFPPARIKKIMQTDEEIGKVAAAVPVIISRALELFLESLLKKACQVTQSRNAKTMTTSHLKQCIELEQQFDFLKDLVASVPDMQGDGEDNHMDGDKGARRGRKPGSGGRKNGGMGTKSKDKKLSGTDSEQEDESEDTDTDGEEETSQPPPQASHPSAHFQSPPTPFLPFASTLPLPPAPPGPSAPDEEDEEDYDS
UniProt Q16254: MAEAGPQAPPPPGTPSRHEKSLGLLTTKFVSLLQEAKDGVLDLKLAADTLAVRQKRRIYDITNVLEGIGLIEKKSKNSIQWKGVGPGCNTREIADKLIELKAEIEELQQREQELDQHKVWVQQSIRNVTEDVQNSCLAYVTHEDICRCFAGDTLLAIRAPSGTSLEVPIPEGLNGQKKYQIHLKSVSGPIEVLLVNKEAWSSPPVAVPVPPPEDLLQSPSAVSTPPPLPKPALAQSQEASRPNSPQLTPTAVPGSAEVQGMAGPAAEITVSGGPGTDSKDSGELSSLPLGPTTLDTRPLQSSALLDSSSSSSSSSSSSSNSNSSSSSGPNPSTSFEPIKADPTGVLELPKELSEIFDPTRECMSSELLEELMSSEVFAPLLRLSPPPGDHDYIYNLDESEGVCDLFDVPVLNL
UniProt Q96C19: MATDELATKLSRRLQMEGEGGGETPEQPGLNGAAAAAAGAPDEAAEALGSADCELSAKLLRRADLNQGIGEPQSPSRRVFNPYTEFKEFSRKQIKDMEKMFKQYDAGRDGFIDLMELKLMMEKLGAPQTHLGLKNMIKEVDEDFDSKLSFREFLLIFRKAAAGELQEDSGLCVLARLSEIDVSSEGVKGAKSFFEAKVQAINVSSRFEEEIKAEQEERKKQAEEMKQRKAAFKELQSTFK
UniProt Q9H410: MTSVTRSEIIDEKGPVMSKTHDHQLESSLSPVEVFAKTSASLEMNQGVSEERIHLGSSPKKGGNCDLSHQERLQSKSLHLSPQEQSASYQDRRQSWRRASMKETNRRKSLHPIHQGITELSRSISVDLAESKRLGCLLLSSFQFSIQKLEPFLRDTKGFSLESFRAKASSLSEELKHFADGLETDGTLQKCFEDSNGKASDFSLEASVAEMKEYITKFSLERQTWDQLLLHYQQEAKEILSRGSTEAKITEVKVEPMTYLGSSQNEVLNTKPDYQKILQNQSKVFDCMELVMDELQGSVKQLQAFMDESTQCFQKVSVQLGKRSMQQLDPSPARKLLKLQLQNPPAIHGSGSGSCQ
UniProt O95620: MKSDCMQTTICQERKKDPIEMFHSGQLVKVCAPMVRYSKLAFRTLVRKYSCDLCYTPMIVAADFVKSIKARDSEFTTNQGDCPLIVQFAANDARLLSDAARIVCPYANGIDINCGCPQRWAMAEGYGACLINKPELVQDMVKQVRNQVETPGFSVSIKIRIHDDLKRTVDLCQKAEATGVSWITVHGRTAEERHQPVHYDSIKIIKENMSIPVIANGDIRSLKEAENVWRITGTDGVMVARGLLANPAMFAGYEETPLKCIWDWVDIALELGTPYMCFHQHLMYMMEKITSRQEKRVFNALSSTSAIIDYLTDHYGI
UniProt O43324: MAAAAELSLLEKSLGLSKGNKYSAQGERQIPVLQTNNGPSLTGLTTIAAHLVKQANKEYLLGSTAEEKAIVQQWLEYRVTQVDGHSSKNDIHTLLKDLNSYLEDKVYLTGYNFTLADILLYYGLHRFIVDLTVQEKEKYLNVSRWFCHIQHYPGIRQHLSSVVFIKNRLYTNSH
UniProt Q9BY44: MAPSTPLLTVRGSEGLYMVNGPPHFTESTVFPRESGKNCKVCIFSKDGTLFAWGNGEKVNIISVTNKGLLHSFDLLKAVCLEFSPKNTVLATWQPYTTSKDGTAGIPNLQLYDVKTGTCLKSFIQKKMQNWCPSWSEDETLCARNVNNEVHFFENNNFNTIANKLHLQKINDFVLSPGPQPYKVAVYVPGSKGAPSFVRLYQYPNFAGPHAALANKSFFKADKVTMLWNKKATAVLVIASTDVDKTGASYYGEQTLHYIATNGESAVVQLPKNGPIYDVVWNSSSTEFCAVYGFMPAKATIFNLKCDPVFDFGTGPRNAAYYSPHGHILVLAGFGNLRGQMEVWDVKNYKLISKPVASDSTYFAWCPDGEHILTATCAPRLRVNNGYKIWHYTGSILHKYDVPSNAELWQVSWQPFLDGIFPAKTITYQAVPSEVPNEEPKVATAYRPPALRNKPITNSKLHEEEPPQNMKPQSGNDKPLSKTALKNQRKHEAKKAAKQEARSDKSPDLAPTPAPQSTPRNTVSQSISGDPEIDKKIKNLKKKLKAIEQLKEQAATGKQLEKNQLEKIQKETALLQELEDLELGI
EEF1AKMT2, A0A494BZY7, UniProt A0A494BZY7, whole entry, looked up: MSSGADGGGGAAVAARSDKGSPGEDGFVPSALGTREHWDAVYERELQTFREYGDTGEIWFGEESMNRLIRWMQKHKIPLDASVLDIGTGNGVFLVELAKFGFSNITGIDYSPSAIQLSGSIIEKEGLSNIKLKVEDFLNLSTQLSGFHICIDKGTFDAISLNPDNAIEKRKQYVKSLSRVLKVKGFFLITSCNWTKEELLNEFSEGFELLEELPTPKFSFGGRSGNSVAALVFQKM
UniProt P23919: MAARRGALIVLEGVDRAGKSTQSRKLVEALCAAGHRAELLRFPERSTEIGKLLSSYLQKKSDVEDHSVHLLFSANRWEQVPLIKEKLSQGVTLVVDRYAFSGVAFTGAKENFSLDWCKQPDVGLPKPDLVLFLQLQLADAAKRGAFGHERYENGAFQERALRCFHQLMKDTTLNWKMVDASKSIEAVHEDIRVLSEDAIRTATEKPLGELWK
UniProt Q96FJ2, whole entry, looked up: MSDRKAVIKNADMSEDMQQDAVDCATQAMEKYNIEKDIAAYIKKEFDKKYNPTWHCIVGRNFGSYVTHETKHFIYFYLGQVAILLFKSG
UniProt Q9BTV6: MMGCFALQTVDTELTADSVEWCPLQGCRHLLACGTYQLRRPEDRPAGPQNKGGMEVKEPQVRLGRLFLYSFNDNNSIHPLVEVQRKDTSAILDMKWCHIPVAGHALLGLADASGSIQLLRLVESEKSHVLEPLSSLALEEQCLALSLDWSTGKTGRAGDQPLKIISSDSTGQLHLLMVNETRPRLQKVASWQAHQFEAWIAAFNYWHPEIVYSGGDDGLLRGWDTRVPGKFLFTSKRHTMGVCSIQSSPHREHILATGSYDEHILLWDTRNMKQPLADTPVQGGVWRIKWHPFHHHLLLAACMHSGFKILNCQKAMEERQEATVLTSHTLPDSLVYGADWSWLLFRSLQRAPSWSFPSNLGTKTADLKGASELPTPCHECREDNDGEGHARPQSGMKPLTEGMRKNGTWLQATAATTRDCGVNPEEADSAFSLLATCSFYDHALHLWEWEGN
UniProt Q13011: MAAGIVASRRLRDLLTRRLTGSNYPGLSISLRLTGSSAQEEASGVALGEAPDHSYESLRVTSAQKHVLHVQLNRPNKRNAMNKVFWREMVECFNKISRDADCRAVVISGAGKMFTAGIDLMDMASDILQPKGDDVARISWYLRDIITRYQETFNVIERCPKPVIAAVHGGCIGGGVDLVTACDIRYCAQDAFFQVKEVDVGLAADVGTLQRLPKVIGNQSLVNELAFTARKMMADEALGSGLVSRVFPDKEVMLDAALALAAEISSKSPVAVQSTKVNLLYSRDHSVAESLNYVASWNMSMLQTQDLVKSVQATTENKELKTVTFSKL
UniProt Q9BVJ7: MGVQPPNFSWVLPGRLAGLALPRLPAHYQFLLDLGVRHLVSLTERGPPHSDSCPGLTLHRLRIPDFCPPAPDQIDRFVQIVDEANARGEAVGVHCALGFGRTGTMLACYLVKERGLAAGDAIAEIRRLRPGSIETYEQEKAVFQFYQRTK
UniProt Q86TI2: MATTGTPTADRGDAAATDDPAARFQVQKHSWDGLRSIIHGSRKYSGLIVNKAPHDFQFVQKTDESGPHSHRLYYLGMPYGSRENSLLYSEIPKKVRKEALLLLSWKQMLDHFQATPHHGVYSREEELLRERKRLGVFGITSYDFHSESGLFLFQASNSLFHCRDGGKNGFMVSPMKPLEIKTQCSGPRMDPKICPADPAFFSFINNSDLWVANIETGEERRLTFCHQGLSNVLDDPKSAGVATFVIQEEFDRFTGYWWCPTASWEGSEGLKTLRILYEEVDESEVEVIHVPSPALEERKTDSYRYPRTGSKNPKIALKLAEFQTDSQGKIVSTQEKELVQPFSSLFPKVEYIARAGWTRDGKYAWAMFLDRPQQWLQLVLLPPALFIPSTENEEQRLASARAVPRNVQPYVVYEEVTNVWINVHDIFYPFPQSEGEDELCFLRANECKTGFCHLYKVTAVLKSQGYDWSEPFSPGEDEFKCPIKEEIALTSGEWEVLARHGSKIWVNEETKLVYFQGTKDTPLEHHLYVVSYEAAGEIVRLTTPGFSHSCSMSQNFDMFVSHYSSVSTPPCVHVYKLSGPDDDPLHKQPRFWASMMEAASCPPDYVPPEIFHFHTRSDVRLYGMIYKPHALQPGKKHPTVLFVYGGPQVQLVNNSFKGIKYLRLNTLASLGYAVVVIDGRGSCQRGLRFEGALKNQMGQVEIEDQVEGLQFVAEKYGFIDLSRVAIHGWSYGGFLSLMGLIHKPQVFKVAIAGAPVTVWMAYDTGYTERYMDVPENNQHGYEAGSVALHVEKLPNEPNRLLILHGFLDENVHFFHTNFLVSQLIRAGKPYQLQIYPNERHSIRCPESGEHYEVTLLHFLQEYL
UniProt P29692: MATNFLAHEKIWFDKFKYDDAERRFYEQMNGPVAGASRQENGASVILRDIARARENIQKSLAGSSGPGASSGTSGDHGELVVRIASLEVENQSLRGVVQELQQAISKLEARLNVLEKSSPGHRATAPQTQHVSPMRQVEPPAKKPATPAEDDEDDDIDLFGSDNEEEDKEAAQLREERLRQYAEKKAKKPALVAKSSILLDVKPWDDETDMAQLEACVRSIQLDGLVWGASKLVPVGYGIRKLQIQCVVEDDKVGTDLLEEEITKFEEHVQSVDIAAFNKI
UniProt Q9H8V3: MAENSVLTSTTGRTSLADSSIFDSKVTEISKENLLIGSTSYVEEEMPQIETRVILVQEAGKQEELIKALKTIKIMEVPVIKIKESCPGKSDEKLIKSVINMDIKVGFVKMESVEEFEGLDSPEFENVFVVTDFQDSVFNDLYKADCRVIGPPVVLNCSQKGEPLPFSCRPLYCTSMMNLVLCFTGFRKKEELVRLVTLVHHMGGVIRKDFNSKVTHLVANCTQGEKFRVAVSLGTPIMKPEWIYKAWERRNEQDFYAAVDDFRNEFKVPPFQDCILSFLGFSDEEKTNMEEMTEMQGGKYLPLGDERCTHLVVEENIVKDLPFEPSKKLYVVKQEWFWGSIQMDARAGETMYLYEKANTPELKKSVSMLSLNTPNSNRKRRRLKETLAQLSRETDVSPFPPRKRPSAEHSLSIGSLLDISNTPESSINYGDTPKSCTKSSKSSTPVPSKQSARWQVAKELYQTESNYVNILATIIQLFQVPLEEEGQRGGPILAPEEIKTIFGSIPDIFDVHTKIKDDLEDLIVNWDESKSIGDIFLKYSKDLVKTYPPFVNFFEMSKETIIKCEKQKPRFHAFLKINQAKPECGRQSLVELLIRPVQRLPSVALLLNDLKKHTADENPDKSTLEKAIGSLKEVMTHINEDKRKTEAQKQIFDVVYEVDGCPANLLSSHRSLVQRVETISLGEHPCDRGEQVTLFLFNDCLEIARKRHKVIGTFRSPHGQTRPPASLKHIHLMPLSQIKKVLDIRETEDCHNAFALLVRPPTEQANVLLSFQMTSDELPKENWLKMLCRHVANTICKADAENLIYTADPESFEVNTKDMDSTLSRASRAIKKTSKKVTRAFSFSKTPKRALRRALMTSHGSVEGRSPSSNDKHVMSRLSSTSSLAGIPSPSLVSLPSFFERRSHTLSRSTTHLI
UniProt P51452: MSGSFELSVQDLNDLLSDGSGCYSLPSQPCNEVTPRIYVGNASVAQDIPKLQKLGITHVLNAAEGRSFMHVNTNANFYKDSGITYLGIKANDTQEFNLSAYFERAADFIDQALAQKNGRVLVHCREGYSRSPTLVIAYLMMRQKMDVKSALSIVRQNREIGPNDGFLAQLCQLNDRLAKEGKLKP
UniProt Q8N9N8: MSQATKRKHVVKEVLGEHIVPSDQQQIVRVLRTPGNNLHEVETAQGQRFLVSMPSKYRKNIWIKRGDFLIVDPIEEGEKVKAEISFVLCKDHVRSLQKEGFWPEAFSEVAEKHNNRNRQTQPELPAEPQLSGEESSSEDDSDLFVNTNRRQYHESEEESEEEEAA
UniProt Q99848: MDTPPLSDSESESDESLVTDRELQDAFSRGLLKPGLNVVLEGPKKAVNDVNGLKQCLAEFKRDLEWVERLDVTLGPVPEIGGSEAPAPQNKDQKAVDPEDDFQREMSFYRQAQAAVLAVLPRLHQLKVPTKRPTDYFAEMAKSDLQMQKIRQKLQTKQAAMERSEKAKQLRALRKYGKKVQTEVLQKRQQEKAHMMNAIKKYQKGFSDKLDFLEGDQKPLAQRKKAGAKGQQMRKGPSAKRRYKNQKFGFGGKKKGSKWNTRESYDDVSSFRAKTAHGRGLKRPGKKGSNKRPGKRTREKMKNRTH

The other results are listed elsewhere or left out.

Compound in this assay: C1=CC2=C(C=CC(=C2)/C=C\3/C(=O)NC(=NCC4=CC=CS4)S3)N=C1
Kind of assay: log2 fold change, soluble protein after heating vs DMSO (PISA); higher = thermal stabilisation; K562 lysate, 10 uM; active = over 0.2 and 3.5 SD of the protein, either way, in both replicates (recomputed). The method, boiled down:
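K562 pellets were dounce-homogenised in PBS pH 7.4 containing 1 mM MgCl2, and the crude extract, at 1 mg/mL protein, was exposed to 10 μM compound for 30 min. Aliquots were heated for 3 min across 48°C-58°C, pooled, brought to 0.5% NP-40 at 4°C and spun at 21,000xg for 90 min, with the supernatant taken as soluble protein. TMTpro 16plex LC-MS/MS with equalised channel sums quantified that protein. Values are log-two fold changes in thermal stability relative to solvent controls, taken from duplicates.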
EIF1B (UniProt O60739): the log2 fold change was inactive: 0.255. In the case of EDF1 (UniProt O60869), the log2 fold change is inactive: -0.022. On to DRAP1 isoform 2 (UniProt Q14919), for which the log2 fold change was inactive: -0.015. Consider E2F4 (UniProt Q16254), for which the log2 fold change is inactive: 0.024.

As to EFHD2 (UniProt Q96C19), the log2 fold change was inactive: -0.014. The same measure for DPP8 (UniProt Q6V1X1): inactive: 0.026; for DSN1 (UniProt Q9H410): inactive: 0.014; for DUS4L (UniProt O95620): inactive: 0.007. For EEF1E1 (UniProt O43324), the log2 fold change was inactive: -0.014. As to DYM (UniProt Q7RTS9), the log2 fold change was inactive: 0.002. The same measure for EFTUD2 (UniProt Q15029): inactive: 0; for EIF2A (UniProt Q9BY44): inactive: -0.026; for EEF1AKMT2, A0A494BZY7: inactive: -0.046.

For DPY19L1, A0A1B0GW05, the log2 fold change was inactive: 0.022.

For the target EDEM1 (UniProt Q92611), the log2 fold change was inactive: 0.167. The same measure for DPYSL2 (UniProt Q16555): inactive: 0.018; for DUS3L (UniProt Q96G46): inactive: 0.059; for DSCC1 (UniProt Q9BVC3): inactive: -0.036.

For the target EHBP1 isoform 2 (UniProt Q8NDI1), the log2 fold change was inactive: -0.038. EDARADD (UniProt Q8WWZ3): the log2 fold change is inactive: 0.019. For the target EFHD1 (UniProt Q9BUP0), the log2 fold change is inactive: 0.066. The same measure for DTYMK (UniProt P23919): inactive: -0.017; for DYNLL2 (UniProt Q96FJ2): inactive: 0.008. The same measure for DPH7 (UniProt Q9BTV6): inactive: -0.051; for ECH1 (UniProt Q13011): inactive: 0.002. The same measure for DUSP23 (UniProt Q9BVJ7): inactive: 0.057; for DYNLRB1 (UniProt Q9NP97): inactive: 0.033; for DPP9 isoform 2 (UniProt Q86TI2): inactive: 0.017.

As for DPP7 (UniProt Q9UHL4), the log2 fold change was inactive: -0.032. As for EEF1D isoform 2 (UniProt P29692), the log2 fold change is inactive: -0.031. As to EEF1B2 (UniProt P24534), the log2 fold change was inactive: -0.005. The same measure for DUT (UniProt P33316): inactive: 0.008; for EED, A0A5F9ZI63: inactive: 0.017.

As for DPH6 (UniProt Q7L8W6), the log2 fold change is inactive: 0.008.

ECT2 (UniProt Q9H8V3): the log2 fold change is inactive: 0.011.

On to DUSP3 (UniProt P51452), for which the log2 fold change was inactive: -0.02.

Regarding DYNC1H1 (UniProt Q14204), the log2 fold change is inactive: 0.028. On to EIF1AD (UniProt Q8N9N8), for which the log2 fold change was inactive: -0.051.

For ECI2 (UniProt O75521), the log2 fold change was inactive: -0.011. In the case of EBNA1BP2 (UniProt Q99848) it was inactive: 0.011.
